Here are results for 2 molecules from publication PMC10873199.

Chains of the proteins cited; added tags and fusions are not shown.
UniProt P78395: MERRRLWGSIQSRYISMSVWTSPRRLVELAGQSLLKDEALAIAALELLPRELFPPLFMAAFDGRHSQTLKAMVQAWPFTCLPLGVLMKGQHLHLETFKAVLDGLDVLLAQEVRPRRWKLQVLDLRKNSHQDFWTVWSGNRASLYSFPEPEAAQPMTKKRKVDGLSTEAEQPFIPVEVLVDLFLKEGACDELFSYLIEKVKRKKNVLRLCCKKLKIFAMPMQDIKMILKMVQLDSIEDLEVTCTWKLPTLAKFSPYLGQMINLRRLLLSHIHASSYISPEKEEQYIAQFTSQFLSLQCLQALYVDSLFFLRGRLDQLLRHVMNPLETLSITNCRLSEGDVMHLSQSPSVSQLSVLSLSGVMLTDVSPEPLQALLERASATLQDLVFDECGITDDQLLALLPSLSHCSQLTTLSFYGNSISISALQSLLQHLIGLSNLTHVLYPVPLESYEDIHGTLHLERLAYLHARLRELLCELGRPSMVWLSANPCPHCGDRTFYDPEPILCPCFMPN

No constants are given. Whether binding was seen depends on the method and setting. In cells and extracts the contact can be indirect. Some binding calls cover weakened binding; strength is not graded here. Where a sequence is shown, tags or fusion partners need not be part of it.

Experiment [1] deals with T1, STAG2 (human (endogenous in Mel290)) (UniProt Q8N3U4).
T1 sequence: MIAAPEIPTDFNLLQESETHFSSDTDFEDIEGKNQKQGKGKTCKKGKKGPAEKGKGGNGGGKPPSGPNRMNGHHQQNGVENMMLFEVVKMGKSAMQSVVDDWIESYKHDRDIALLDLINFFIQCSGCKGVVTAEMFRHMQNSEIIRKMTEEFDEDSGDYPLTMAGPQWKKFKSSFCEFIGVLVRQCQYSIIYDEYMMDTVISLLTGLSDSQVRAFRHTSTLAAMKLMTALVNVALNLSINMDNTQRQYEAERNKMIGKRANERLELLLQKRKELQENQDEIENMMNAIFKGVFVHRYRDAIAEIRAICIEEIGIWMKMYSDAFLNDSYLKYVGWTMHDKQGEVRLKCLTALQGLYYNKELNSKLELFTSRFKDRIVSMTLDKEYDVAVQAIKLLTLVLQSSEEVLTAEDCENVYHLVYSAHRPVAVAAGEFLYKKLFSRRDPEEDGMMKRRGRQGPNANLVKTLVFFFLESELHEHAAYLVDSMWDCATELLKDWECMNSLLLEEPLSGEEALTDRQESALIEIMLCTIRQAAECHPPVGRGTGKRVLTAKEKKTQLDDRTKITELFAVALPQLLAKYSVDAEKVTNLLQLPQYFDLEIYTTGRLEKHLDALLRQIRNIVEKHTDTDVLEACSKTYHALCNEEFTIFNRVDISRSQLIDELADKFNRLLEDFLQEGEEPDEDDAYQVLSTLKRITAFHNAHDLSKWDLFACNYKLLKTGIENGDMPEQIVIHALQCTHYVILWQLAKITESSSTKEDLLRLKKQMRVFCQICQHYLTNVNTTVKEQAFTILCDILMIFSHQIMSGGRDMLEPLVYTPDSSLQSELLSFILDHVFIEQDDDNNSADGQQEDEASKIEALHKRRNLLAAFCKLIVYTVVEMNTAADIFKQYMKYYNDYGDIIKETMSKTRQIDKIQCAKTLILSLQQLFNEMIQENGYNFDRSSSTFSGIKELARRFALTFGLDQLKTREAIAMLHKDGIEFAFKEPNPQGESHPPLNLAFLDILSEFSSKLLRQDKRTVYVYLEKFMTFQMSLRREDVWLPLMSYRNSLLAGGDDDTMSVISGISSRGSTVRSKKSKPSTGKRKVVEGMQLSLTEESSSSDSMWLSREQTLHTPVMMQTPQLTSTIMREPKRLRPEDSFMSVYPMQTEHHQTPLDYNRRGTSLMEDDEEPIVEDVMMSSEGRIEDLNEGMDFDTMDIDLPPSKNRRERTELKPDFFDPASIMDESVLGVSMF
Kind of experiment: co-IP; co-IP of PRAME with SMC1A or STAG2 (Supplementary Fig. 4); bait, construct and cells not told in the text shown.

Experiment [2] has as its target T2, SMC1A (human (endogenous in Mel290)) (UniProt Q14683).
T2 sequence: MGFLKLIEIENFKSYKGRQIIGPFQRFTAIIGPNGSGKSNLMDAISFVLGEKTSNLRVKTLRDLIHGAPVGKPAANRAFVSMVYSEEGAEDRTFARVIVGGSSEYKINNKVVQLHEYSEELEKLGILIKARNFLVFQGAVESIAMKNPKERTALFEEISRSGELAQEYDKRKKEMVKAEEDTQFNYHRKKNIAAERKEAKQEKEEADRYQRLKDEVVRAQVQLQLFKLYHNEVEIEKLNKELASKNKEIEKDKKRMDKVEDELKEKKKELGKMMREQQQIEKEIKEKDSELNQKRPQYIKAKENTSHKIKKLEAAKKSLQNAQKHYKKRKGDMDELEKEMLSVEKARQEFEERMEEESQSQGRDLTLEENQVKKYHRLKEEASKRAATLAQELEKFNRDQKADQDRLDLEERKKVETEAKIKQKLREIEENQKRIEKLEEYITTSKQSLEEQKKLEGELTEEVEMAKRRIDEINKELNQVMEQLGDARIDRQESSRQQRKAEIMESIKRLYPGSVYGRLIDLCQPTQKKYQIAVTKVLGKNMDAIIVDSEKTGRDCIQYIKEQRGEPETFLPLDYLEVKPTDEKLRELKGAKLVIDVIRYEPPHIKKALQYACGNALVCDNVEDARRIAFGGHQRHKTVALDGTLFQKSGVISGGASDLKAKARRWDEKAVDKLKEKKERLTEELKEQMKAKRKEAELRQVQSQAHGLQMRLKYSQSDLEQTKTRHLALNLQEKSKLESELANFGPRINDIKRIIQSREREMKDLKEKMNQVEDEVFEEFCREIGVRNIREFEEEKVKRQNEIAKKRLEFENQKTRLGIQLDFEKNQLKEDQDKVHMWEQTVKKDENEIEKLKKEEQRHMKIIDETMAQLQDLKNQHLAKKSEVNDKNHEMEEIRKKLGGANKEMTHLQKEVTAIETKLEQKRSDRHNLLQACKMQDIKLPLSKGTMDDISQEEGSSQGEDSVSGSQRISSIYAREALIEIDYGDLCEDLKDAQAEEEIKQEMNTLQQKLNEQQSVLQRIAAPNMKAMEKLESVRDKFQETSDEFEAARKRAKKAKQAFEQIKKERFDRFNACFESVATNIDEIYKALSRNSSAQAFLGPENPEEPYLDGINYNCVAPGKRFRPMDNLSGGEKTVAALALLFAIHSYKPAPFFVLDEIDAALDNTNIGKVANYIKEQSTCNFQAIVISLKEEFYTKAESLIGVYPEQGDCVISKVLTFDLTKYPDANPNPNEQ
The experiment can be described thus: co-IP; endogenous SMC1A immunoprecipitated from Mel290 lysate with or without PRAME expression (4 weeks); Western blot for STAG2 and SMC1A.

On to “PRAME (as used in the co-IP of Supplementary Fig. 4) (from UniProt P78395 1-509)”, for which, in experiment [1], the binding entry is recorded as “no binding”.

B1: STAG2 (protein, UniProt Q8N3U4 1-1231)
chain: T1 sequence
As for B1, in experiment [2], the binding result is “binds”.
